In PubChem BioAssay AID230 (DTP/NCI, 2004) one finds T/C and survivor count data, which are given here for 27 molecules.

The list shows only some results of the screen, not a fair sample: it gathers tests that were run many times, whatever their T/C, doses with no T/C, and many T/C values between a quarter and a half above the control. Further doses and runs are listed elsewhere. T/C gives the treated animals as a percentage of the vehicle group. Some doses have a count of surviving animals in place of a T/C: the source files T/C as zero there, which appears to mark a toxic dose or a test without result, not a measured value. Some survivor counts are full or nearly so, which does not show that the dose was tolerated: survival well below the control is almost never listed, so the zero probably covers shortened survival too. Counts of survivors are from the toxicity check (mostly the fifth day) where no day follows; animals may have died later. Schedule codes are those of the source, taken here to give the interval after Q, in days (D) or hours (H), and the number of doses after X. Some entries hold several experiments; their values stand side by side, smallest first. For survival time, the PubChem record calls one and a half times the control and up active, and a quarter to a half above the control has no call in these data; cut-offs in other NCI protocols can differ.

In this test the test system is C3H/He mice, Gardner lymphosarcoma 6C3HED ip, survival T/C. As to the kind of experiment: NCI In Vivo Anticancer Drug Screen. Data for tumor model Lymphosarcoma Gardner 6C3HED (intraperitoneal) in C3H/He mice. Particulars: higher T/C = longer survival. The method, then:
The antitumor activity of compounds was measured in mice bearing transplantable tumors. Survival or tumor size were measured and the results are expressed as the measurement made in the treated group (T) divided by the measurement made in the vehicle treated control group (C). The tumor model used in this assay is Lymphosarcoma Gardner 6C3HED (intraperitoneal) in C3H/He mice

Where [1] appears, read: T/C endpoint: survival time, mean or median, dose: 1.25 mg/kg/injection, schedule: Q01DX010 (ip), vehicle: saline.
Where [2] appears, read: T/C endpoint: survival time, mean or median, dose: 2.5 mg/kg/injection, schedule: Q01DX010 (ip), vehicle: saline.
Where [3] appears, read: T/C endpoint: survival time, mean or median, dose: 5.0 mg/kg/injection, schedule: Q01DX010 (ip), vehicle: saline.
[4] abbreviates: T/C endpoint: survival time, mean or median, dose: 10.0 mg/kg/injection, schedule: Q01DX010 (ip), vehicle: saline.
Setting [5] is: T/C endpoint: survival time, mean or median, dose: 40.0 mg/kg/injection, schedule: Q01DX010 (ip), vehicle: saline.
The mark [6] stands for this setting: T/C endpoint: survival time, mean or median, dose: 62.5 mg/kg/injection, schedule: Q01DX010 (ip), vehicle: saline.
Setting [7] is: T/C endpoint: survival time, mean or median, dose: 200.0 mg/kg/injection, schedule: Q01DX010 (ip), vehicle: saline.
The mark [8] stands for this setting: T/C endpoint: survival time, mean or median, dose: 300.0 mg/kg/injection, schedule: Q01DX010 (ip), vehicle: saline.
Where [9] appears, read: T/C endpoint: survival time, mean or median, dose: 20.0 mg/kg/injection, schedule: Q01DX010 (ip), vehicle: saline.
[10] abbreviates: T/C endpoint: survival time, mean or median, dose: 80.0 mg/kg/injection, schedule: Q01DX010 (ip), vehicle: saline.
Setting [11] is: T/C endpoint: survival time, mean or median, dose: 100.0 mg/kg/injection, schedule: Q01DX010 (ip), vehicle: saline.
[12] abbreviates: T/C endpoint: survival time, mean or median, dose: 12.5 mg/kg/injection, schedule: Q01DX010 (ip), vehicle: saline.
The mark [13] stands for this setting: T/C endpoint: survival time, mean or median, dose: 25.0 mg/kg/injection, schedule: Q01DX010 (ip), vehicle: saline.
Where [14] appears, read: T/C endpoint: survival time, mean or median, dose: 50.0 mg/kg/injection, schedule: Q01DX010 (ip), vehicle: saline.
The mark [15] stands for this setting: T/C endpoint: survival time, mean or median, dose: 250.0 mg/kg/injection, schedule: Q01DX010 (ip), vehicle: saline.
The mark [16] stands for this setting: T/C endpoint: survival time, mean or median, dose: 500.0 mg/kg/injection, schedule: Q01DX010 (ip), vehicle: saline.

In the case of `O[C@H](CN1CC1)[C@@H](O)CN1CC1`, the T/C (T/C endpoint: survival time, mean or median, dose: 125.0 micrograms/kg/injection, schedule: Q01DX010 (ip), vehicle: saline) was 146 % of control. The survivor count is on record as 6 of 6 (T/C endpoint: survival time, mean or median, dose: 500.0 micrograms/kg/injection, schedule: Q01DX010 (ip), vehicle: saline) and 6 of 6 (T/C endpoint: survival time, mean or median, dose: 1000.0 micrograms/kg/injection, schedule: Q01DX010 (ip), vehicle: saline).

On to `N#Cc1cn(C2OC(CO)C(O)C2O)c2ncnc(N)c12` (stereo not given), for which the survivor count is 6 of 6 (T/C endpoint: survival time, mean or median, dose: 63.0 micrograms/kg/injection, schedule: Q01DX010 (ip), vehicle: saline) and 5 of 6 (T/C endpoint: survival time, mean or median, dose: 250.0 micrograms/kg/injection, schedule: Q01DX010 (ip), vehicle: saline).

As for `OCCOCCN1CCN(CCCN2c3ccccc3Sc3ccc(C(F)(F)F)cc32)CC1`, the survivor count (T/C endpoint: survival time, mean or median, dose: 0.63 mg/kg/injection, schedule: Q01DX010 (ip), vehicle: saline) is 6 of 6; the survivor count under setting [1] is 5 of 6; the survivor count under setting [2] is listed as 4 of 6; the survivor count under setting [3] is given as 5 of 6; the survivor count under setting [4] is 6 of 6; the survivor count under setting [5] is reported as 6 of 6.

Turning to `Cc1cn(C2OC(CO)C(O)C2O)c(=O)[nH]c1=O` (stereo not given), under setting [6], the survivor count was 6 of 6.

In the case of `CN(C)CC(=O)c1ccc(O)c(O)c1`, the T/C is, setting by setting: under setting [7], 130 and 138 % of control; under setting [8], 138 % of control; (T/C endpoint: survival time, mean or median, dose: 450.0 mg/kg/injection, schedule: Q01DX010 (ip), vehicle: saline) 133 and 134 % of control; (T/C endpoint: survival time, mean or median, dose: 675.0 mg/kg/injection, schedule: Q01DX010 (ip), vehicle: saline) 138 % of control.

In the case of `CN1CCN(CCCN2c3ccccc3Sc3ccc(C(F)(F)F)cc32)CC1`, the survivor count by setting is: under setting [9], 6 of 6; under setting [5], 5 of 6; under setting [10], 4 of 6; (T/C endpoint: survival time, mean or median, dose: 160.0 mg/kg/injection, schedule: Q01DX010 (ip), vehicle: saline) 0 of 6.

As to `Nc1nc([Se])c2ncn(C3OC(CO)C(O)C3O)c2n1` (stereo not given), for the setting “T/C endpoint: median survival time, dose: 32.0 mg/kg/injection, schedule: Q01DX009 (ip), vehicle: saline”, the survivor count is on record as 8 of 10.

As for `CC1CCOS(=O)O1` (stereo not given), the survivor count under setting [5] is on record as 6 of 6 and the survivor count under setting [10] was 6 of 6.

On to `[N-]=[N+]=CC(=O)CCC(N)C(=O)O` (stereo not given), for which the T/C (T/C endpoint: survival time, mean or median, dose: 0.2 mg/kg/injection, schedule: Q01DX010 (ip), vehicle: saline) is 131 and 135 % of control.

Turning to `CO[C@@H]1[C@@H](OC2OC(C)C(OC3CC(C)(O)C(OC(=O)CC(C)C)C(C)O3)C(N(C)C)C2O)[C@@H](CC=O)C[C@@H](C)C(=O)/C=C/C2O[C@H]2C[C@@H](C)OC(=O)C[C@H]1OC(C)=O` (stereo not given in full), the survivor count is 6 of 6 (T/C endpoint: survival time, mean or median, dose: 4.7 mg/kg/injection, schedule: Q01DX010 (ip), vehicle: saline); 6 of 6 (T/C endpoint: survival time, mean or median, dose: 9.4 mg/kg/injection, schedule: Q01DX010 (ip), vehicle: saline); 6 of 6 (T/C endpoint: survival time, mean or median, dose: 37.5 mg/kg/injection, schedule: Q01DX010 (ip), vehicle: saline); 6 of 6 (T/C endpoint: survival time, mean or median, dose: 75.0 mg/kg/injection, schedule: Q01DX010 (ip), vehicle: saline); 6 of 6 (T/C endpoint: survival time, mean or median, dose: 150.0 mg/kg/injection, schedule: Q01DX010 (ip), vehicle: saline); 6 of 6 under setting [8].

For the molecule `CCC1=C(c2ccc(OC)cc2)CCC(C(=O)O)C1C` (stereo not given), where the note is “T/C endpoint: survival time, mean or median, dose: 200.0 mg/kg/injection, schedule: Q01DX010 (sc), vehicle: steroid suspending solution”, the survivor count was 6 of 6.

With `NC(CC(=O)O)C(=O)O` (stereo not given), the survivor count was 10 of 10 (T/C endpoint: median survival time, dose: 200.0 mg/kg/injection, schedule: Q01DX005 (ip), vehicle: water); 5 of 10 and 6 of 10 (T/C endpoint: median survival time, dose: 400.0 mg/kg/injection, schedule: Q01DX005 (ip), vehicle: water); 5 of 10 (T/C endpoint: median survival time, dose: 800.0 mg/kg/injection, schedule: Q01DX005 (ip), vehicle: water).

As to `C[C@@H]1C[C@H]2CC[C@H](O2)[C@H](C)C(=O)O[C@@H](C)C[C@@H]2CC[C@@H](O2)[C@@H](C)C(=O)O[C@H](C)C[C@H]2CC[C@H](O2)[C@H](C)C(=O)O[C@@H](C)C[C@@H]2CC[C@@H](O2)[C@@H](C)C(=O)O1`, the survivor count under setting [11] is given as 5 of 6.

Consider `c1ccc(CCSc2ncnc3nc[nH]c23)cc1`, for which the survivor count under setting [6] is on record as 6 of 6.

Consider `C[N+](C)(C)c1ncnc2nc[nH]c12`, for which the survivor count (T/C endpoint: survival time, mean or median, dose: 60.0 mg/kg/injection, schedule: Q01DX010 (ip), vehicle: saline) is listed as 6 of 6 and the survivor count (T/C endpoint: survival time, mean or median, dose: 120.0 mg/kg/injection, schedule: Q01DX010 (ip), vehicle: saline) is 6 of 6.

Turning to `CO[C@H](C(=O)[C@@H](O)[C@@H](C)O)[C@@H]1Cc2cc3cc(OC4CC(OC5CC(O)C(O)C(C)O5)C(O)C(C)O4)c(C)c(O)c3c(O)c2C(=O)[C@H]1OC1CC(OC2CC(OC3CC(C)(O)C(O)C(C)O3)C(O)C(C)O2)C(O)C(C)O1` (stereo not given in full), for the setting “T/C endpoint: survival time, mean or median, dose: 0.5 mg/kg/injection, schedule: Q01DX010 (ip), vehicle: saline”, the T/C is 126 % of control.

Consider `COS(C)(=O)=O`, for which the survivor count under setting [11] is recorded as 6 of 6.

`CCN(CC)CCCC(C)Nc1c2ccc(Cl)cc2nc2ccc(OC)cc12` (stereo not given): the survivor count is, setting by setting: under setting [12], 6 of 6; under setting [13], 6 of 6; under setting [11], 5 of 6; under setting [7], 0 of 6.

For the molecule `Cn1c(N)nc2nc[nH]c2c1=S`, the survivor count under setting [10] is reported as 6 of 6.

On to `CC(=O)Nc1ccc2nc3ccc(NC(C)=O)cc3[n+](-c3ccccc3)c2c1`, for which, under setting [14], the survivor count is given as 5 of 6.

Turning to `O=[n+]1c2c(n([O-])c3ccccc31)-c1cccc3cccc-2c13`, the survivor count is, setting by setting: (T/C endpoint: survival time, mean or median, dose: 6.25 mg/kg/injection, schedule: Q01DX010 (ip), vehicle: saline) 6 of 6; under setting [12], 6 of 6; under setting [13], 6 of 6; under setting [14], 4 of 6; under setting [11], 6 of 6; under setting [7], 0 of 6.

Consider `O=c1[nH]c(=O)n(C2CC(O)C(CO)O2)cc1C(F)(F)F` (stereo not given), for which the survivor count reads like this: under setting [15], 6 of 6; under setting [16], 6 of 6.

With `CC[n+]1c(-c2ccccc2)c2cc(N)ccc2c2ccc(N)cc21`, the T/C runs as follows: under setting [1], 132 % of control; under setting [2], 137 % of control; under setting [3], 146 % of control; under setting [4], 144 % of control.

Take `COc1cc(-c2ccc(Nc3ccccc3C(=O)O)c(OC)c2)ccc1N`: the survivor count under setting [9] was 7 of 7.

On to `COc1ccc2c(c1OC)C(=O)O[C@@H]2[C@H]1c2c(cc3c(c2OC)OCO3)CCN1C`, for which the survivor count reads like this: (T/C endpoint: survival time, mean or median, dose: 15.6 mg/kg/injection, schedule: Q01DX010 (ip), vehicle: saline) 6 of 6; under setting [6], 6 of 6; (T/C endpoint: survival time, mean or median, dose: 125.0 mg/kg/injection, schedule: Q01DX010 (ip), vehicle: saline) 5 of 6; under setting [15], 6 of 6.

As to `CC[C@@H](c1ccc(O)cc1)[C@@H](CC)c1ccc(O)cc1`, for the setting “T/C endpoint: survival time, mean or median, dose: 200.0 mg/kg/injection, schedule: Q01DX010 (sc), vehicle: water”, the survivor count is on record as 6 of 6.

Take `Cc1n[nH]c(=O)[nH]c1=O`: under setting [16], the survivor count is listed as 6 of 6.
